{
  "source": "patent US20250213523A1",
  "about": "“COMBINATION OF HDAC INHIBITORS AND STATINS FOR USE IN THE TREATMENT OF PANCREATIC CANCER” (ISTITUTO NAZIONALE TUMORI IRCCS - FONDAZIONE G. PASCALE, priority 2022, published 2025)",
  "key": {"[1]": {"system": "KPC ID11", "experiment": "Cell proliferation assay (Sulforhodamine B), IC50", "type": "cell-based, C57/BL6 mice", "settings": "Mus musculus; KPC ID11, 96 hours of treatment; read-out: IC50 96 h mean ± SD", "protocol": "(§1) FIG. 1. Pancreatic Cancer Cell lines features. A. Basal mRNA basal levels of EMT markers Vimentin and E-Cadherin in PDAC cell lines L3.6pl, BxPC3, COLO357, PANC28, PANC1, ASPC1 and MIAPACA2, in normal pancreatic cells HPDE cells, as well as in 2 established PDX-derived primary cells KPC ID11 and KPC ID95 were determined by qRT-PCR. […] Cells were grown for 48 h before preparation of cell lysates. Proteins were separated by SDS-PAGE and transferred to PVDF membranes using standard protocols. The membranes were probed with specific antibodies and Ponceau Red as total protein loading controls. Data represents representative results of at least three independent experiments.\n(§2) Cell proliferation was measured in 96-well plates in cells untreated and treated with described drugs as single agent or in combination. […] Synergism, additivity, and antagonism were quantified after an evaluation of the Combination Index (CI), which was calculated by the Chou-Talalay equation with CalcuSyn software (Biosoft, Cambridge, UK-Chou T C. Cancer Res. 2010 Jan. 15; 70(2):440-6.), as described elsewhere (Terranova-Barberio M, J Exp Clin Cancer Res. 2017; 36(1):177); Bruzzese et al, J Cell Physiol 2011, 226(9):2378-2390). […] The DRI determined the magnitude of dose reduction allowed for each drug when given in combination, compared with the concentration of a single agent that is needed to achieve the same effect. […]"}, "[2]": {"system": "KPC ID95", "experiment": "Cell proliferation assay (Sulforhodamine B), IC50", "type": "cell-based, C57/BL6 mice", "settings": "Mus musculus; KPC ID95, 96 hours of treatment; read-out: IC50 96 h mean ± SD", "protocol": "as §1, §2"}},
  "data": [
    {"compound": "CC(C)c1c(C(=O)Nc2ccccc2)c(-c2ccccc2)c(-c2ccc(F)cc2)n1CC[C@@H](O)C[C@@H](O)CC(=O)O", "note": "[ATOR, Atorvastatin]", "values": [
      {"measurement": "IC50", "setting": "[1]", "result": "3.1 ± 0.2", "unit": "µM"},
      {"measurement": "IC50", "setting": "[2]", "result": "4 ± 0.22", "unit": "µM"}
    ]}
  ]
}
